Assay results taken from PubChem BioAssay AID1671190 (National Center for Advancing Translational Sciences (NCATS), 2021).
The whole screen tested about 580,000 compounds, of which about 6,100 (1.1%) were called active. The inconclusive results got no clear call from the source; some entries with a clear call stand among them for comparison. Calls follow the shape of the dose curve; as a rule, active = well fitted inhibition curve with a large enough effect; inconclusive = small, poorly fitted or top-dose-only effect, or another doubt; inactive = no such curve, though single readings can be large or run the other way. A potency beside an inconclusive call is a rough fit, not a confirmed value.

Protein sequences, listed by entry. Tags and fused reporters are not part of them.
UniProt P18054, whole entry, looked up: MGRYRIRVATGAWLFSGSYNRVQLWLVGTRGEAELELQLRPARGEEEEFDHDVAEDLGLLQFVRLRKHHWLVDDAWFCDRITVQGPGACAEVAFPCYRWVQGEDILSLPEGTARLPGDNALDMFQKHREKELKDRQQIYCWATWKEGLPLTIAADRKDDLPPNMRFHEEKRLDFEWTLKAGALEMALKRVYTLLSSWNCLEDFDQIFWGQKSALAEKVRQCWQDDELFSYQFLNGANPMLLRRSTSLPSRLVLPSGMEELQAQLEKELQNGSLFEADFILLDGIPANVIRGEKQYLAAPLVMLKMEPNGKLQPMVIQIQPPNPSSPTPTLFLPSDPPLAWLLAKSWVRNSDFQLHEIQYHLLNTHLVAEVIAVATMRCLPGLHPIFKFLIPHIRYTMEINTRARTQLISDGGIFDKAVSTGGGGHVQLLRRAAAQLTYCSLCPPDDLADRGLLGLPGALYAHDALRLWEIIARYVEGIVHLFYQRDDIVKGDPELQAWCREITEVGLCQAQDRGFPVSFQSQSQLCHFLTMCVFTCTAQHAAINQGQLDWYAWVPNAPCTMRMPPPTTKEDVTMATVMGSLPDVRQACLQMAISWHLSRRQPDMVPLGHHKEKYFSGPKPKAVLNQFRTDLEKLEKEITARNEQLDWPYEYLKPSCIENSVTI

Biological target: Polyunsaturated fatty acid lipoxygenase ALOX12 (Homo sapiens) (UniProt P18054)
Assay: Primary qHTS assay for inhibitors of human arachidonate 12S-lipoxygenase (ALOX12): Round 2
Conditions: purified 12hLO, xylenol orange hydroperoxide absorbance; activity change, negative = inhibition: at 108 µM (top of the series) unless noted
Method in brief: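 Purified human 12hLO at 150 nM in 25 mM Hepes, 0.01% Triton X-100, pH 7.0, preincubated 15 min at room temperature with compound. Reaction started with 40 uM arachidonic acid, 30 min at room temperature. Hydroperoxide measured by Fe-xylenol orange, 573/405 nm absorbance ratio.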
% is scaled to controls: 0 for no effect and ±100 for the full control effect; potency is read from the fitted curve at half-maximal effect.

SMILES	activity change, negative = inhibition	Potency
Cc1cccc(N2C(=O)CCC2=O)c1	inactive: 0%	
O=C(Nc1ccc(Cl)c(S(=O)(=O)N2CCOCC2)c1)[C@@H]1CCCN1C(=O)c1cccs1		inconclusive: 8.91 µM [inhibitor, partial curve, poor fit]
CCCn1nc(C(=O)NNC(=O)c2cccc(S(=O)(=O)NC(C)C)c2)c2ccccc2c1=O	inactive: -4.23%	
Cc1ccc(S(=O)(=O)NC(=O)C2(C)CCN2C(=O)Cc2ccc(-c3ccccc3)cc2)cc1 (stereo not given)		inconclusive: 39.8 µM [inhibitor, partial curve, poor fit]
O=C(Cn1nnc2sc(-c3ccccc3)cc2c1=O)Nc1ccc(F)c(Cl)c1	inactive: -26.2%	
OCCN(CCO)CC(O)COc1ccc2ccccc2c1 (stereo not given)	inconclusive: -30.8% [inhibitor]	
CCc1ccc(C(=O)N(Cc2ccccn2)C2CC2)s1	inactive: 32.7%	
COc1ccc(CNc2ncnc3c2CN(c2ccc(C)cc2)C(=O)N(C)C3)cc1OC		inconclusive: 89.1 µM [inhibitor, single point]
O=C1c2oc3ccccc3c(=O)c2C(c2ccc(O)cc2)N1Cc1ccc2c(c1)OCO2 (stereo not given)		inconclusive: 112 µM [inhibitor, partial curve, poor fit]
Cc1ccc(S(=O)(=O)Nc2ccc(S(=O)(=O)Nc3nccs3)cc2)c([N+](=O)[O-])c1		inconclusive: 35.5 µM [inhibitor, full curve, poor fit]
Cc1ccc(S(=O)(=O)NC2(C(=O)O)CCCC2)cc1		inconclusive: 2.82 µM [inhibitor, full curve, poor fit]
O=C(CSc1nnc(-c2cccnc2)n1-c1ccccc1)N1CCN(c2ccc(F)cc2)CC1		inconclusive: 39.8 µM [inhibitor, partial curve]
CCNC(=O)NC(=O)CSc1nnc(-c2ccccc2)c(-c2ccccc2)n1		inconclusive: 100 µM [inhibitor, partial curve, poor fit]
CCC(C)NC(=O)C1=CC(c2cccc(OC)c2)=NS(=O)(=O)N1C (stereo not given)		inconclusive: 44.7 µM [inhibitor, partial curve, poor fit]
CC1CN(C2=NC(=O)/C(=C3/C(=O)N(Cc4ccc(F)cc4)c4ccccc43)S2)CC(C)O1 (stereo not given)		inconclusive: 100 µM [inhibitor, single point]
Cc1oc2cc(OCC(=O)O)ccc2c(=O)c1Oc1ccccc1Br		active: 31.6 µM
O=C(c1ccc(Cl)cc1)N1CCC(c2nc3ccccc3o2)CC1	inconclusive: -32% [inhibitor]	
O=C(NCC(c1ccco1)N1CCc2ccccc21)c1c(F)cccc1F (stereo not given)		inconclusive: 44.7 µM [inhibitor, partial curve, poor fit]

SMILES	activity change, negative = inhibition	Potency
CC(C)CCNC(=O)CCC1CCN(C(=O)c2ccccc2F)CC1	inactive: 8.58%	
CC1=C(c2ccc(C)cc2)[N+](=O)C(C)(C)N1[O-]	inactive: -4.07%	
N#Cc1cc(N)cc(I)c1	inactive: 6.71%	
CCOc1ccc(NC(=O)c2c(NCc3ccc(C)o3)sc3c2CCCCC3)cc1		active: 39.8 µM
Cc1cc(N2CCC(C)CC2)nc2ccc(NC(=O)c3ccc(N(C)C)cc3)cc12	inactive: -2.53%	
CC(C)NS(=O)(=O)c1ccc(OCC(=O)N2CCN(c3ccccc3)CC2)cc1		inconclusive: 44.7 µM [inhibitor, partial curve, poor fit]
O=C1C=C(O)c2c(O)cc(O)c(O)c2C1=O		inconclusive: 35.5 µM [inhibitor, partial curve, poor fit]
CCCCNS(=O)(=O)c1ccc(N2CCCCS2(=O)=O)cc1		inconclusive: 126 µM [inhibitor, partial curve, poor fit]
CCN1C[C@@H]2[C@@H]3C(=O)N(C)C(=O)[C@@H]3[C@](C)(C1=O)N2C(=O)c1ccccc1		inconclusive: 39.8 µM [inhibitor, partial curve, poor fit]
COCCn1c(C)cc(C(=O)COC(=O)c2c(C)nn(Cc3ccccc3)c2C)c1C	inactive: 0%	
CCNC(=S)N(CCc1c(C)[nH]c2ccc(Cl)cc12)Cc1ccco1	inactive: -27.3%	
CCOC(=O)[C@]12CCCC=C1N(Cc1ccc3c(c1)OCO3)C(=O)[C@H](CC(=O)NCC13CC4CC(CC(C4)C1)C3)C2		inconclusive: 112 µM [inhibitor, single point]
COc1ccc(-c2cn3c(n2)sc2cc(C(=O)Nc4cccc(SC)c4)ccc23)cc1		inconclusive: 0.562 µM [inhibitor, full curve, poor fit]
Cc1ccc(NC(=O)c2cc(N3C(=O)C=CC3=O)ccc2N2CCOCC2)cc1		active: 10 µM
O=S(=O)(NCCC1=CCCCC1)c1cccc(S(=O)(=O)N2CCOCC2)c1	inactive: 21.8%	
Cc1ccc(-c2ccc(=O)n(CC(=O)NCCc3ccc(Cl)cc3)n2)cc1		inconclusive: 89.1 µM [inhibitor, partial curve, poor fit]
CCCOc1ccc(-c2nc3ccc4ccccc4c3c3c2CCC3)cc1	inactive: -1.39%	

Quoted at random: 2 compounds from above, in no set order.
SMILES	activity change, negative = inhibition	Potency
CCNC(=O)NC(=O)CSc1nnc(-c2ccccc2)c(-c2ccccc2)n1		inconclusive: 100 µM [inhibitor, partial curve, poor fit]
COCCn1c(C)cc(C(=O)COC(=O)c2c(C)nn(Cc3ccccc3)c2C)c1C	inactive: 0%	
